Measurements as given in patent US20260224561A1, “INHIBITORS OF CYCLIC ADP RIBOSE HYDROLASE AND METHODS OF USE THEREOF” (Flagship Pioneering Innovations VI, LLC, priority 2022, published 2026).

By UniProt entry, the sequences of proteins in these tests, tags left out.
UniProt P28907, whole entry: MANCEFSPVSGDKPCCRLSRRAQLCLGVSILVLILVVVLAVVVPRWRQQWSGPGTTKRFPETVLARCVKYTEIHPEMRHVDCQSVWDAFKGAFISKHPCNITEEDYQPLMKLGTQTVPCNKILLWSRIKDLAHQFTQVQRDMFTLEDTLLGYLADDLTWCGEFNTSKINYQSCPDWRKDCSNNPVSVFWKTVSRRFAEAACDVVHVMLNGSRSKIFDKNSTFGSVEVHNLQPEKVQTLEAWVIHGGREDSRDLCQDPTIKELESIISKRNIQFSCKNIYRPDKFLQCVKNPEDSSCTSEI

Molecular target: Human recombinant CD38 (Homo sapiens, UniProt P28907)
Assay: CD38 hydrolase inhibition assay
Details: glycohydrolase activity, 0.2 ng/μL CD38, 100 μM ε-NAD substrate, fluorescence excitation 300 nm / emission 410 nm

O=C(Nc1ccnc(C(F)(F)F)c1)c1cc(OC2CC2)cc(-n2ccnc2)c1
IC50: 100 to 1000 nM

The match of structure and compound is tentative.
